# Where a name gives a salt, the structure may show the parent alone. Some of the results follow. Repeats are few or missing, and single values can be far off.
# Tests used:
# Experiment in all cases: reduction in cell viability relative to untreated/vehicle; higher = more growth inhibition
# Conditions in all cases: 200 nM; 72 h
# M229P = system: M229P (parental melanoma line)
# M229R = system: M229R (matched melanoma line resistant to BRAF inhibitors)
# M238P = system: M238P (parental melanoma line)
# M238R = system: M238R (matched melanoma line resistant to BRAF inhibitors)
# M249P = system: M249P (parental melanoma line)
# M249R = system: M249R (matched melanoma line resistant to BRAF inhibitors)
# UACC62P = system: UACC62P (parental melanoma line)
# UACC62R = system: UACC62R (matched melanoma line resistant to BRAF inhibitors)
SMILES,reduction in cell viability (M229P),reduction in cell viability (M229R),reduction in cell viability (M238P),reduction in cell viability (M238R),reduction in cell viability (M249P),reduction in cell viability (M249R),reduction in cell viability (UACC62P),reduction in cell viability (UACC62R)
c1cc2c(cc1[C@H]1OC[C@H]3[C@@H]1CO[C@@H]3c1ccc3c(c1)OCO3)OCO2 [Sesamin],< 0%,< 0%,< 0%,< 0%,< 0%,< 0%,5.19%,< 0%
C=C(C)[C@H]1Cc2c(ccc3c2O[C@@H]2COc4cc(OC)c(OC)cc4[C@@H]2C3=O)O1 [Rotenone],7.66%,18.5%,25.7%,< 0%,9.78%,21.1%,25.8%,53.5%
COc1cccc2c1[C@]13CCN(CC4CC4)[C@H](C2)[C@]1(OC)CCC(=O)C3 [Cyprodime],< 0%,< 0%,< 0%,< 0%,< 0%,< 0%,9.74%,< 0%
Cc1sc2c(c1C)C(c1ccc(Cl)cc1)=N[C@@H](CC(=O)OC(C)(C)C)c1nnc(C)n1-2,22.4%,14.9%,23.4%,< 0%,21.3%,39.1%,23.9%,15.2%
Cc1ccccc1-n1c(Cn2ncc3c(N)ncnc32)nc2cccc(C)c2c1=O,< 0%,< 0%,< 0%,< 0%,< 0%,< 0%,14.7%,< 0%
Cc1c(C(=O)Nc2cccc(C(F)(F)F)c2)cc(-c2ccccc2)n1CCCN1CCOCC1,< 0%,< 0%,< 0%,72.9%,2.14%,< 0%,32.2%,< 0%
CO[C@H]1CC[C@@H](O[C@H]2C[C@H]([C@]3(C)CC[C@]4(C[C@H](O)[C@@H](C)[C@@H]([C@@H](C)/C=C(\C)C(=O)[C@H](C)C[C@H](C)C(=O)O)O4)O3)O[C@]3(O[C@@H]([C@H]4O[C@@](O)(CO)[C@H](C)C[C@@H]4C)C[C@@H]3C)[C@@H]2C)O[C@@H]1C [Nanchangmycin],16.1%,28.4%,37.6%,27.6%,9.07%,46%,21.4%,45.7%
O=C1CCC[C@@H]2[C@H]3CCCN4CCC[C@@H](CN12)[C@@H]34 [Matrine],< 0%,< 0%,< 0%,< 0%,< 0%,< 0%,< 0%,< 0%
COc1ccc(C(=O)c2c(C)n(CCN3CCOCC3)c3cc(I)ccc23)cc1,< 0%,2.01%,< 0%,< 0%,< 0%,< 0%,< 0%,< 0%
O=P1(N(CCCl)CCCl)NCCCO1 (centres undefined) [Cyclophosphamide],< 0%,< 0%,< 0%,< 0%,2.27%,< 0%,9.02%,< 0%
COc1ccc(C(CN(C)C)C2(O)CCCCC2)cc1 (centres undefined) [Venlafaxine hydrochloride],< 0%,< 0%,< 0%,< 0%,< 0%,< 0%,< 0%,< 0%
C[C@@H]1O[C@@H](O[C@@H]2C=C3CC[C@@H]4[C@H](CC[C@]5(C)[C@@H](c6ccc(=O)oc6)CC[C@]45O)[C@@]3(C)CC2)[C@H](O)[C@H](O)[C@H]1O [Proscillaridin],77.5%,78.7%,75%,84.1%,70.1%,94.8%,98.2%,77.9%
CCc1c(C(=O)C(N)=O)c2c(OCC(=O)O)cccc2n1Cc1ccccc1 [Varespladib],< 0%,< 0%,< 0%,< 0%,< 0%,< 0%,< 0%,< 0%
COc1ccc2c(c[n+](C)c3c4cc5c(cc4ccc23)OCO5)c1OC [Chelerythrine chloride],< 0%,< 0%,21.1%,< 0%,< 0%,< 0%,20.5%,< 0%
C[C@@H]1CC[C@@]2(OC1)O[C@H]1C[C@H]3[C@@H]4CC=C5C[C@@H](O[C@@H]6O[C@H](CO)[C@@H](O[C@@H]7O[C@@H](C)[C@H](O)[C@@H](O)[C@H]7O)[C@H](O)[C@H]6O[C@@H]6O[C@@H](C)[C@H](O)[C@@H](O)[C@H]6O)CC[C@]5(C)[C@H]4CC[C@]3(C)[C@H]1[C@@H]2C [Dioscin],< 0%,< 0%,< 0%,< 0%,< 0%,< 0%,< 0%,< 0%
C[C@@]12C(=O)OC(=O)[C@]1(C)[C@H]1CC[C@@H]2O1 [Cantharidin],< 0%,< 0%,< 0%,< 0%,< 0%,< 0%,< 0%,< 0%
CC(C)(O)C(=O)Nc1ccc([N+](=O)[O-])c(C(F)(F)F)c1 [Hydroxyflutamide],< 0%,< 0%,< 0%,< 0%,< 0%,< 0%,1.29%,< 0%
C[C@]12O[C@H](C[C@]1(O)CO)n1c3ccccc3c3c4c(c5c6ccccc6n2c5c31)CNC4=O [Lestaurtinib???],< 0%,42.8%,32.2%,13.2%,15.6%,37.8%,36.7%,10.8%
C=CCO/N=C(/C[C@H]1O[C@@H]2O[C@]3(C)CC[C@H]4[C@H](C)CC[C@@H]([C@H]1C)[C@@]24OO3)[C@H]1O[C@@H]2O[C@]3(C)CC[C@H]4[C@H](C)CC[C@@H]([C@H]1C)[C@@]24OO3 [BTM-2C-dimer allyl oxime],20.8%,7.68%,28.2%,25%,55.9%,47.7%,46.6%,58.7%
CC1=C(O)C(=O)C=C2C1=CC=C1[C@@]2(C)CC[C@@]2(C)[C@@H]3C[C@](C)(C(=O)O)CC[C@]3(C)CC[C@]12C [Tripterin],< 0%,< 0%,20.2%,27.4%,< 0%,< 0%,6.45%,4.69%
Cc1cccc(C)c1NC(=O)CN1CCCC1=O [Nefiracetam],< 0%,< 0%,< 0%,< 0%,< 0%,< 0%,< 0%,< 0%
O=C(NCC1CCOCC1)c1cnc(Nc2ccc(Cl)cc2Cl)nc1C(F)(F)F,< 0%,< 0%,< 0%,< 0%,< 0%,12.3%,11.4%,< 0%
O=C(O)c1nn(Cc2ccc(Cl)cc2Cl)c2ccccc12 [Lonidamine],< 0%,< 0%,< 0%,< 0%,13.4%,< 0%,< 0%,< 0%
CN1[C@@H]2C[C@@H](OC(=O)[C@H](CO)c3ccccc3)C[C@H]1[C@@H]1O[C@@H]12 [Scopolamine],< 0%,< 0%,< 0%,< 0%,< 0%,< 0%,< 0%,< 0%
Fc1ccc(C(OCCN2CCN(CCCc3ccccc3)CC2)c2ccc(F)cc2)cc1,< 0%,< 0%,< 0%,< 0%,< 0%,13.5%,< 0%,< 0%
Oc1ccc2c3c1O[C@H]1c4[nH]c5c(c4C[C@@]4(O)[C@@H](C2)N(CC2CC2)CC[C@]314)C[C@@]1(O)[C@H]2Cc3ccc(O)c4c3[C@@]1(CCN2CC1CC1)[C@H]5O4 [nor-Binaltorphimine],< 0%,< 0%,< 0%,< 0%,< 0%,< 0%,< 0%,< 0%
CCCC[N+]1(C)[C@@H]2C[C@@H](OC(=O)[C@H](CO)c3ccccc3)C[C@H]1[C@@H]1O[C@@H]12 (some centres undefined) [Butylscopolamine bromide],< 0%,< 0%,< 0%,< 0%,< 0%,< 0%,< 0%,< 0%
C[C@H]([C@H](O)CCC(C)(C)O)[C@H]1CC[C@@]2(O)C3=CC(=O)[C@@H]4C[C@@H](O)[C@@H](O)C[C@]4(C)[C@H]3CC[C@]12C [Ecdysone],< 0%,< 0%,< 0%,< 0%,< 0%,2.13%,1.22%,< 0%

# Entries of single compounds as entered above.
# `O=C(NCC1CCOCC1)c1cnc(Nc2ccc(Cl)cc2Cl)nc1C(F)(F)F` is listed with reduction in cell viability (M229P): < 0%; reduction in cell viability (M229R): < 0%; reduction in cell viability (M238P): < 0%; reduction in cell viability (M238R): < 0%; reduction in cell viability (M249P): < 0%; reduction in cell viability (M249R): 12.3%; reduction in cell viability (UACC62P): 11.4%; reduction in cell viability (UACC62R): < 0%
# `O=C1CCC[C@@H]2[C@H]3CCCN4CCC[C@@H](CN12)[C@@H]34` [Matrine] is listed with reduction in cell viability (M229P): < 0%; reduction in cell viability (M229R): < 0%; reduction in cell viability (M238P): < 0%; reduction in cell viability (M238R): < 0%; reduction in cell viability (M249P): < 0%; reduction in cell viability (M249R): < 0%; reduction in cell viability (UACC62P): < 0%; reduction in cell viability (UACC62R): < 0%

# Reference: the supplement of paper PMC9015667
